The experiment has as its target TRX-APRIL (mouse) (UniProt Q9D777). In words: SPR competition.

Chains of the proteins cited; added tags and fusions are not shown. Residues count along the entry.
UniProt Q9D777, residues 104-241: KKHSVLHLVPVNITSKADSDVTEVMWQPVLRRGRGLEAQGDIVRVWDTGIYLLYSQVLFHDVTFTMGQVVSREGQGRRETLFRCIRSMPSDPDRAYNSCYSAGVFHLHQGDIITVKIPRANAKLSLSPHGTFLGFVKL

Results are given in words; binding and its absence hold for the method and conditions named. Some results given as binding are weak or reduced against the parent protein; the word gives no strength. Sequences can lack the tags named with a protein.

B1: TACI_d1d2 (residues 21-116 of the TACI extracellular domain, C-terminal His-tag) (receptor, not shown: small tags and cut ends)
chain: FPQGLWTGVAMRSCPEEQYWDPLLGTCMSCKTICNHQSQRTCAAFCRSLSCRKEQGKFYDHLLRDCISCASICGQHPKQCAYFCENKLRSPVNLPP
Take B1: the binding result is “binds”.

These data come from patent US20080181886A1, “Polypeptides That Bind Baff And/Or April” (Genentech, Inc., priority 2004, published 2008).
